In paper PMC3869942:
No constants are given. Whether binding was seen depends on the method and setting. In cells and extracts the contact can be indirect. Some results given as binding are weak or reduced against the parent protein; the word gives no strength.

Chains of the proteins cited; added tags and fusions are not shown.
UniProt Q9UKI8: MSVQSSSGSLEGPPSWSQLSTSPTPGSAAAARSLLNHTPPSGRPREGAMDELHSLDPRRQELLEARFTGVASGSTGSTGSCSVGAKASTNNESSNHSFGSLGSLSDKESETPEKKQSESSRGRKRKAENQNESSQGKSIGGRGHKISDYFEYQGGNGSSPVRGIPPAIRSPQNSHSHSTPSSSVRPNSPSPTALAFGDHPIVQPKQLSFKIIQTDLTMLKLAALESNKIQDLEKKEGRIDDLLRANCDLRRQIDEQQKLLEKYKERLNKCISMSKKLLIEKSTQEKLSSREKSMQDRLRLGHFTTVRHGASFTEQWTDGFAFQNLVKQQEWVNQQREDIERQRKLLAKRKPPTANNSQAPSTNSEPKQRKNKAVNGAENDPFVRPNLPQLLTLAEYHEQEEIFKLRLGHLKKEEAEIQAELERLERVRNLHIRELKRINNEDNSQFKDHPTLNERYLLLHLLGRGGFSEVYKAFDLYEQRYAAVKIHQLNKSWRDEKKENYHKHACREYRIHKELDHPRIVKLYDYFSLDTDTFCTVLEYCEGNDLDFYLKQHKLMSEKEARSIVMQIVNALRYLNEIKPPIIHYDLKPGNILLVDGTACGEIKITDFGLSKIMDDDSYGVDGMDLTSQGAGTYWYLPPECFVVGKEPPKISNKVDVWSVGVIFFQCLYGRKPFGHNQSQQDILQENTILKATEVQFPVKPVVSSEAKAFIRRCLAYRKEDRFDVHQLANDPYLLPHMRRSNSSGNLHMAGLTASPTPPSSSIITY

Biological target: T1, Rad9 (human (endogenous in HeLa)) (UniProt Q99638)
T1 sequence: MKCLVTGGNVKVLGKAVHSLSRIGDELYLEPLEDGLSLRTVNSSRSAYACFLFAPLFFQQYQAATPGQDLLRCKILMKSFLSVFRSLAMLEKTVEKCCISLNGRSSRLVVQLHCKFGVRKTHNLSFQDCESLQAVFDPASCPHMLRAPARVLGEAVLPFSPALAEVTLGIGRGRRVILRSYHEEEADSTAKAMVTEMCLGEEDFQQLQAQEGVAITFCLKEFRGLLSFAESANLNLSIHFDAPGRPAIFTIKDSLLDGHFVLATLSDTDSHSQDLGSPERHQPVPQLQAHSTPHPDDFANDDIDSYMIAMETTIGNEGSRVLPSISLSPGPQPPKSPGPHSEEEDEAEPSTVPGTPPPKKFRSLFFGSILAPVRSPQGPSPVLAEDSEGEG
Experiment: co-IP; HeLa cells synchronised at G1/S with a single thymidine block, released 2 hr, exposed to 10Gy IR and harvested at progressive time-points; lysed in NETN buffer (250mM NaCl, 20mM Tris pH 8.0, 0.5% Nonidet P-40, 10% glycerol) in the presence or absence of DNase I; immunoprecipitation with chicken polyclonal anti-Rad9 and anti-chicken IgY-agarose, overnight at 4°C; immunoblot for TLK1

binding: binds
Substance: Tousled-like kinase 1 (from UniProt Q9UKI8 1-766) (enzyme)
